Assay [1] concerns the target FLAG-tagged β-transducin repeat-containing protein (β-TrCP) (UniProt Q9Y297). As to the kind of experiment: co-IP; FLAG-β-TrCP captured on anti-FLAG M2 magnetic beads from lysates of HEK293T cells co-transfected with NSP1 vectors (24 h p.t.); lysis in 150 mM NaCl, 50 mM Tris-HCl pH 7.4, 1% Triton X-100; overnight at 4°C; elution with 0.1 M glycine pH 3.0; immunoblot; in Fig. 7A cells mock treated or treated with MLN4924. In general terms: A western blot detects proteins with antibodies after separation by electrophoresis.

Sequences of proteins named here, by UniProt entry; tags and fusion partners are left off.
UniProt Q9Y297: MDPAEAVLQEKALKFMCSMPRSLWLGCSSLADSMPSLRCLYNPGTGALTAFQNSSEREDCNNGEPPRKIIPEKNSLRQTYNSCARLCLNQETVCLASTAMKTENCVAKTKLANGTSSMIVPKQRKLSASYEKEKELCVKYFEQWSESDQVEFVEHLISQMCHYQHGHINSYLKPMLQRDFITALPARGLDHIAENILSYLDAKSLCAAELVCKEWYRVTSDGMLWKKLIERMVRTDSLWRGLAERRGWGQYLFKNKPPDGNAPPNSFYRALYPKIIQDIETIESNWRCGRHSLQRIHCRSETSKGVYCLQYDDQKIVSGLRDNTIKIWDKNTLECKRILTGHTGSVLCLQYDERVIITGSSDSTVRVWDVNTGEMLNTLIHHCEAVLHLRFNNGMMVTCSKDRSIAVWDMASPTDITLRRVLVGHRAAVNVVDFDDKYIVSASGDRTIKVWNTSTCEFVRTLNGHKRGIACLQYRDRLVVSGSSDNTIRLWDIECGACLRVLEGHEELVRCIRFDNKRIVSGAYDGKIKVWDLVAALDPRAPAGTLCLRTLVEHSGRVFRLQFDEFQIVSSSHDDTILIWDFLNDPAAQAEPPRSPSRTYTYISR
UniProt P68400: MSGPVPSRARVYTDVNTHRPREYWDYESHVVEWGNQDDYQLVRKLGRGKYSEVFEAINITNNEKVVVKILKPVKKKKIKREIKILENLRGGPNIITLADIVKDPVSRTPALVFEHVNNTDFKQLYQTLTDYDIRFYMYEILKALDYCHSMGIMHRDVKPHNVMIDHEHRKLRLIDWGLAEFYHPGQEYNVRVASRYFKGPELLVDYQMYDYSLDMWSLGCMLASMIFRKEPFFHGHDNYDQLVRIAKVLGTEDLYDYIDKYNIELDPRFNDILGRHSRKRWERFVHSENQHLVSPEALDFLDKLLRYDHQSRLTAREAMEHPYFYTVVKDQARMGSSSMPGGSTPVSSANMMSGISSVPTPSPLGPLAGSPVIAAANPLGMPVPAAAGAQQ

Assay [2] addresses OSU NSP1 C42A (mutation of a conserved cysteine residue in the N-terminal RING domain) (porcine rotavirus strain OSU) (UniProt Q84940). The description is as above.

These are yes or no findings as the source states them, for the method shown. Binding seen in cells or lysates may run through a third protein. Some entries that bind do so weakly or less than the wild type.

Take “OSU NSP1 C42A (mutation of a conserved cysteine residue in the N-terminal RING domain) (from UniProt Q84940 1-486)”: the binding result in assay [1] is “binds”.

As to “casein kinase II (CKII), catalytic subunit detected with CKIIα antibody (from UniProt P68400 1-391) (enzyme)”, the binding entry in assay [2] is reported as “binds”.

“OSU NSP1 E486Q (lacks the CKII priming residue; phosphorylation-defective ILD) (from UniProt Q84940 1-486)”: the binding entry in assay [1] is given as “no binding”.

These data come from publication PMC5574712.
